No constants are given. Whether binding was seen depends on the method and setting. Binding seen in cells or lysates may run through a third protein. Some binding calls cover weakened binding; strength is not graded here.
Molecular target: T1, steroidogenic acute regulatory protein (StAR) (UniProt P51557)
T1 sequence: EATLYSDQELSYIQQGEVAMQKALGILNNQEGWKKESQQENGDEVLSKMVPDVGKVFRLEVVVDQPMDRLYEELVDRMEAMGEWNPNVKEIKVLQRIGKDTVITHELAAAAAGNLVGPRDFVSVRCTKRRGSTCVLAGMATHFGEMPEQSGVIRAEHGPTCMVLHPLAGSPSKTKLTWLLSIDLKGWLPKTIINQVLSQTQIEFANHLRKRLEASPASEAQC
Test: co-IP; Y1 cells with the indicated plasmids; lysis buffer 0.5% Nonidet P‐40, 5 mM EDTA, 5 mM EGTA in PBS; beads conjugated with indicated antibodies, 4 °C, 6–8 h; immunoblotting

B1: 14‐3‐3γ adapter protein (protein, UniProt P61982 1-247)
chain: MVDREQLVQKARLAEQAERYDDMAAAMKNVTELNEPLSNEERNLLSVAYKNVVGARRSSWRVISSIEQKTSADGNEKKIEMVRAYREKIEKELEAVCQDVLSLLDNYLIKNCSETQYESKVFYLKMKGDYYRYLAEVATGEKRATVVESSEKAYSEAHEISKEHMQPTHPIRLGLALNYSVFYYEIQNAPEQACHLAKTAFDDAIAELDTLNEDSYKDSTLIMQLLRDNLTLWTSDQQDDDGGEGNN
binding: binds

From paper PMC11095200
